Results deposited as PubChem BioAssay AID1224828 (NIAID, 2016)
Purpose: 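Regulators linking TLR4 signalling to p65 nuclear translocation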 (primary screen). Cells: mouse RAW264.7 G9 macrophage reporter cells (GFP-p65, Tnf promoter-mCherry). Reagents: siRNA pool against mouse genes, 100 nM. Timing: 2 days siRNA transfection, then 40 min LPS before fixation. Conditions: LPS (Salmonella minnesota R595) at 10 ng/ml. Measured: 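Imaged p65 nuclear translocation ratio, normalised to the plate median, converted to robust z-scores and averaged across two replicates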. Scale: p65 translocation robust z-score: higher = more nuclear NF-kappaB p65 after LPS than the plate median; nuclear/cytoplasmic p65 ratio: higher = more nuclear NF-kappaB p65. Active means: 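Called active when z exceeds 3.3 or falls under -1.56 (median of Tlr4 controls), giving activity score of at least 50; no calls for control wells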. Calls: active = hit (p65 shift raised or lowered); inactive = no clear change.
The whole screen tested about 17,000 reagents; shown is an unselected part. 762 of all reagents (4.5%) were called active. 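Active calls include both raised and lowered p65 entry, mostly lowered; wells with fewer than 50 cells lack a z-score.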 Raw values vary from plate to plate and are shown uncorrected. Reagents against one gene are numbered here. Reagent sequences are not shown.

no.	gene knocked down	pool no.	p65 translocation robust z-score	nuclear/cytoplasmic p65 ratio, rep 1	nuclear/cytoplasmic p65 ratio, rep 2	low cell count flag	outcome
1	Tbx4	1	-0.41	1.53	1.4	enough cells to score	inactive
2	Zbtb32	1	0.31	1.55	1.57	enough cells to score	inactive
3	Jag1	1	0.19	1.46	1.45	enough cells to score	inactive
4	Me3	1	0.05	1.53	1.59	enough cells to score	inactive
5	Acy1	1	0.62	1.71	1.72	enough cells to score	inactive
6	Sae1	1		1.25	1.14	fewer than 50 cells per well; well left out of scoring	inactive
7	Or5k1b	1	1.07	1.79	1.55	enough cells to score	inactive
8	Cutc	1	-0.49	1.46	1.75	enough cells to score	inactive
9	1700129L13RIK	1	-3.27	1.46	0.995	enough cells to score	active
10	Ncf2	1	0.5	1.45	1.46	enough cells to score	inactive
11	Cypt3	1	2.9	2.02	1.55	enough cells to score	inactive
12	Psma4	1		2.11	1.17	fewer than 50 cells per well; well left out of scoring	inactive
13	Or11q2	1	-0.11	1.57	1.43	enough cells to score	inactive
14	Tmem64	1	-0.83	1.4	1.34	enough cells to score	inactive
15	Pola2	1	-0.02	1.4	1.2	enough cells to score	inactive
16	Mrgprh	1		1.56	0	fewer than 50 cells per well; well left out of scoring	inactive
17	Cdip1	1		1.35	1.56	fewer than 50 cells per well; well left out of scoring	inactive
18	Jazf1	1	0.36	1.67	1.73	enough cells to score	inactive
19	Coq8a	1	0.32	1.73	1.6	enough cells to score	inactive

Records listed above marked active (1):
gene knocked down	pool no.	p65 translocation robust z-score	nuclear/cytoplasmic p65 ratio, rep 1	nuclear/cytoplasmic p65 ratio, rep 2	low cell count flag	outcome
1700129L13RIK	1	-3.27	1.46	0.995	enough cells to score	active

More entries follow.
no.	gene knocked down	pool no.	p65 translocation robust z-score	nuclear/cytoplasmic p65 ratio, rep 1	nuclear/cytoplasmic p65 ratio, rep 2	low cell count flag	outcome
20	Irag1	1	-0.45	1.33	1.33	enough cells to score	inactive
21	Lrsam1	1	-3.02	1.37	0.996	enough cells to score	active
22	Slco2a1	1		1.69	1.24	fewer than 50 cells per well; well left out of scoring	inactive
23	Fam163a	1		1.19	1.32	fewer than 50 cells per well; well left out of scoring	inactive
24	Prdm8	1	0.56	1.62	1.78	enough cells to score	inactive
25	Cyp2b19	1	0.29	1.61	1.84	enough cells to score	inactive
26	Mcm8	1	0.99	1.82	1.74	enough cells to score	inactive
27	Pdxdc1	1	-1.07	1.08	1.38	enough cells to score	inactive
28	Trim12a	1	-1.77	1.15	0.99	enough cells to score	active
29	1700024B05Rik	1	1.16	1.44	1.57	enough cells to score	inactive
30	Csde1	1	-0.23	1.41	1.36	enough cells to score	inactive
31	Ext2	1	-0.69	1.35	1.3	enough cells to score	inactive
32	Nrde2	1	-0.62	1.52	1.7	enough cells to score	inactive
33	Klra17	1	-0.27	1.5	1.29	enough cells to score	inactive
34	Dnpep	1	0.07	1.38	1.38	enough cells to score	inactive
35	Eif3b	1	0.95	1.65	1.44	enough cells to score	inactive
36	Rpl37a	1		1.4	1.21	fewer than 50 cells per well; well left out of scoring	inactive
37	Kif2c	1	0.6	1.59	1.42	enough cells to score	inactive
38	Dlx2	1	-0.22	1.47	1.33	enough cells to score	inactive
39	Socs1	1	-0.46	1.58	1.35	enough cells to score	inactive
40	Ucn	1	-0.5	1.57	1.32	enough cells to score	inactive
41	Tm2d2	1	1.73	1.89	1.69	enough cells to score	inactive
42	Diaph1	1	0.82	1.61	1.47	enough cells to score	inactive
43	Ntsr2	1	1.98	1.73	1.94	enough cells to score	inactive
44	Chst2	1	-0.39	1.58	1.67	enough cells to score	inactive
45	Vwa7	1	0.14	1.6	1.56	enough cells to score	inactive
46	Birc2	1	0.56	1.73	1.67	enough cells to score	inactive
47	Snrnp200	1	-0.83	1.47	1.51	enough cells to score	inactive
48	Prex1	1	-1.44	1.26	1.32	enough cells to score	inactive
49	Ano2	1		1.28	1.17	fewer than 50 cells per well; well left out of scoring	inactive
50	Lcn5	1	0.99	1.69	1.56	enough cells to score	inactive
51	Acer2	1	0.23	1.56	1.88	enough cells to score	inactive
52	Acer2	2	0.41	1.45	1.47	enough cells to score	inactive
53	Efcab7	1	-1.06	1.48	1.6	enough cells to score	inactive
54	Asnsd1	1		1.39	1.51	fewer than 50 cells per well; well left out of scoring	inactive
55	Or5l13	1	-0.39	1.69	1.44	enough cells to score	inactive
56	Scn3a	1	-0.26	1.38	1.19	enough cells to score	inactive
57	Terf2	1	-0.18	1.49	1.58	enough cells to score	inactive
58	Cox4i2	1	-0.42	1.54	1.69	enough cells to score	inactive
59	Bfsp2	1	0.24	1.61	1.69	enough cells to score	inactive
